These results are taken from the M2OR odorant receptor database.

Each structure is given as a SMILES string. Only a part is listed here, and it is no random draw. Calls are pooled over several reports, among them a noisy single-well screen. The list shows a part of the results. The list shows a part of the results.

Holding throughout (settings): stereoisomer not certain
Experiment [1] deals with T1, OR5AN1 (Homo sapiens) (UniProt Q8NGI8).
T1 sequence (whole entry): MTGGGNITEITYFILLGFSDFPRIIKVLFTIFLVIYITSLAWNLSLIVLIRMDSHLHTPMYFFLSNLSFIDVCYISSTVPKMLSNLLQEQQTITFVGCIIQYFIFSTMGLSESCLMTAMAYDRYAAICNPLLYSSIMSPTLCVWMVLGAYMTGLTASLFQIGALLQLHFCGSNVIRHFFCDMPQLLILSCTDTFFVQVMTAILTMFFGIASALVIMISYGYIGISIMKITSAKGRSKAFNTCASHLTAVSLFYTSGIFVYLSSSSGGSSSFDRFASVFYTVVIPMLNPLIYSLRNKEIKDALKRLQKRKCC
Put shortly: (§1)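 Assay methods differ from source to source, frequently being transient luciferase assays in mammalian cell lines. For each receptor–molecule pair, the label responsive (active) applies when the original authors judged the measured signal statistically different from baseline, and non-responsive (inactive) applies otherwise.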

Experiment [2] has as its target T2, OR5AR1 (Homo sapiens) (UniProt Q8NGP9).
T2 sequence (whole entry): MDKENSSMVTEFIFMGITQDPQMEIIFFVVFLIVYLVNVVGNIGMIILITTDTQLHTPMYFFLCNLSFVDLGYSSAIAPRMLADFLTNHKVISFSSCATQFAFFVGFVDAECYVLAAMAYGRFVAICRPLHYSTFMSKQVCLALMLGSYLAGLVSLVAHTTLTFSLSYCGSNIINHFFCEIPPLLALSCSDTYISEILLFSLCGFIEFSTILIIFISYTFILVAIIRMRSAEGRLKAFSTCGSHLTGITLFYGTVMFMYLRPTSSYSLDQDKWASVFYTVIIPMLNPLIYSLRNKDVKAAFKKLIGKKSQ
Put shortly:
as §1

Experiment [3] has as its target T3, OR5AS1 (Homo sapiens) (UniProt Q8N127).
T3 sequence (whole entry): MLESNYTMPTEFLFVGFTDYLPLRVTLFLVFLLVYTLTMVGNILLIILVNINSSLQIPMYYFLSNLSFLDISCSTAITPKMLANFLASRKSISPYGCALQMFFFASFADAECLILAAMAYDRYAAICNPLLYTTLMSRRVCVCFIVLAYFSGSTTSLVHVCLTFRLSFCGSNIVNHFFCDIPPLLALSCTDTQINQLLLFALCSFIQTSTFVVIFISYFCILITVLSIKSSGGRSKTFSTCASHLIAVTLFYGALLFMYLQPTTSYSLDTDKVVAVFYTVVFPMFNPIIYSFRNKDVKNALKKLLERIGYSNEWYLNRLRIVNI
Put shortly:
as §1

For experiment [4], the target named is T4, OR5AU1 (Homo sapiens) (UniProt Q8NGC0).
T4 sequence (whole entry): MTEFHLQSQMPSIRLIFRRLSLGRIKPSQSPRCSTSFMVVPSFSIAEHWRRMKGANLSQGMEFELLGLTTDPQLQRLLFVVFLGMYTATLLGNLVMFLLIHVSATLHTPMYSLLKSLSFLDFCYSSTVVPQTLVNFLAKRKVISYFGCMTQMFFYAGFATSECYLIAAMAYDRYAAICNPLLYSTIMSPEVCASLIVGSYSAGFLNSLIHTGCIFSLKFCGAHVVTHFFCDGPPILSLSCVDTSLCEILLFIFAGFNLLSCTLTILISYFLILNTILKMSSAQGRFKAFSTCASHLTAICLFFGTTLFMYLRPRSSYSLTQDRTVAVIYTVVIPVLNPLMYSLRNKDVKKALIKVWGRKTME
Put shortly: as §1

Experiment [5] has as its target T5, OR5B17 (Homo sapiens) (UniProt Q8NGF7).
T5 sequence (whole entry): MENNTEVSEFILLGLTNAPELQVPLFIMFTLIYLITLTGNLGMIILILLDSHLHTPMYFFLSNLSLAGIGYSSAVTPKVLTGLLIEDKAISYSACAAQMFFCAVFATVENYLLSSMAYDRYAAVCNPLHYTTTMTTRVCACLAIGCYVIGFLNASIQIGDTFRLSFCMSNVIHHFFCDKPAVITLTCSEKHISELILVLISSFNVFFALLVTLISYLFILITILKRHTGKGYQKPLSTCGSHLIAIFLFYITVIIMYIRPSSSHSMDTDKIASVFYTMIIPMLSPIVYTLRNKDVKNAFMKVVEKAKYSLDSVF
Put shortly: as §1

For experiment [6], the system named is T6, OR5B2.
T6 sequence (whole entry): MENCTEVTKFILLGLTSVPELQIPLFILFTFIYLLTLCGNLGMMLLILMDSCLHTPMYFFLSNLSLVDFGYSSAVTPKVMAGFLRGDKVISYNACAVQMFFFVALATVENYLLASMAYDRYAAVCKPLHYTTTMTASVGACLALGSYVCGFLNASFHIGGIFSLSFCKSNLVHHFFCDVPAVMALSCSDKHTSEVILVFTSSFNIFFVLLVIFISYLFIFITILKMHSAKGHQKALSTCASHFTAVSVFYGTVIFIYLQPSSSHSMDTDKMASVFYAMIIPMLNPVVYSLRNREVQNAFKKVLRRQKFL
Put shortly: as §1

The target in experiment [7] is T7, OR5B3 (Homo sapiens) (UniProt Q8NH48).
T7 sequence (whole entry): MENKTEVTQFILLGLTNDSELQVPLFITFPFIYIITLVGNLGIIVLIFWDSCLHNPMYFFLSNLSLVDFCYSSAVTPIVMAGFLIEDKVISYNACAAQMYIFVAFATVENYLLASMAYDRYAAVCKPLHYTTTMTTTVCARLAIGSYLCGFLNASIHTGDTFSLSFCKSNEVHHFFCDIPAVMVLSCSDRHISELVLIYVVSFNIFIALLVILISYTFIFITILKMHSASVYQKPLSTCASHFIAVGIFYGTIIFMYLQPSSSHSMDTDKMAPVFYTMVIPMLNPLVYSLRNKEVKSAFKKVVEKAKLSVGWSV
Put shortly:
as §1

The subject of experiment [8] is T8, OR5BC.
T8 sequence (whole entry): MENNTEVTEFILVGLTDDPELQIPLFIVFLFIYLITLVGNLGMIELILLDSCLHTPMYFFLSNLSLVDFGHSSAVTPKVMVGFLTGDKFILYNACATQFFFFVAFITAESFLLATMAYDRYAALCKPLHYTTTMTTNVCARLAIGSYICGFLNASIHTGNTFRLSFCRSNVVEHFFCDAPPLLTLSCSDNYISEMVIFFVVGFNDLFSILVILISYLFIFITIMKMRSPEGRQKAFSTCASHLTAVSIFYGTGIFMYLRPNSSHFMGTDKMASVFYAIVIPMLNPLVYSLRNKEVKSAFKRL
Put shortly:
as §1

Experiment [9] relates to T9, OR5BL.
T9 sequence (whole entry): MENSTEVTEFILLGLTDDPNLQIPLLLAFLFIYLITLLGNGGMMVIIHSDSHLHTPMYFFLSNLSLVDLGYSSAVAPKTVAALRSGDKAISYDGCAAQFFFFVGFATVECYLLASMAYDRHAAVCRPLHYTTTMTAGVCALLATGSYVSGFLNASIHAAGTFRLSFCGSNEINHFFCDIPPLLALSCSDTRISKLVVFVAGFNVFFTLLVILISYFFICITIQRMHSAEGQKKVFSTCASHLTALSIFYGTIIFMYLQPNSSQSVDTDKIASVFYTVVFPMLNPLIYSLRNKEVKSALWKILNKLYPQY
Put shortly:
as §1

Experiment [10] deals with T10, OR5C1 (Homo sapiens) (UniProt Q8NGR4).
T10 sequence (whole entry): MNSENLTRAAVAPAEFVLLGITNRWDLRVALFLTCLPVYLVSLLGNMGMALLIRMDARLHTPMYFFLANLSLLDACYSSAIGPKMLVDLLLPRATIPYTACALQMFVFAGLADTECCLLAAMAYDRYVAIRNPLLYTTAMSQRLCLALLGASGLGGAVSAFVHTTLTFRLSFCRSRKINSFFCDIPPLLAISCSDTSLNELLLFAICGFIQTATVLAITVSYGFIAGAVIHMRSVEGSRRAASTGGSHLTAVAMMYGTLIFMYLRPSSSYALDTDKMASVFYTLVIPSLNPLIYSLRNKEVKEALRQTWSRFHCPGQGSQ
Put shortly: as §1

The test system of experiment [11] is T11, OR5DD.
T11 sequence (whole entry): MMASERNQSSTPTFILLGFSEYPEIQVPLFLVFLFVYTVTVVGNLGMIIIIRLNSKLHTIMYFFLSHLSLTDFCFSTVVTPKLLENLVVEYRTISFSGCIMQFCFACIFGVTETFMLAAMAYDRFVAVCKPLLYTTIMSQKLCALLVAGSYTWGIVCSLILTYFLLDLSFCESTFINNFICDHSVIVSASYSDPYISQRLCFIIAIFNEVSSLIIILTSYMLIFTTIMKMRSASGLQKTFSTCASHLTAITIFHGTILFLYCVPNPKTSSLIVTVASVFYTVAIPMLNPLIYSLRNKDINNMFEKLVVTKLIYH
Put shortly: as §1

Experiment [12] has as its system T12, OR5DE.
T12 sequence (whole entry): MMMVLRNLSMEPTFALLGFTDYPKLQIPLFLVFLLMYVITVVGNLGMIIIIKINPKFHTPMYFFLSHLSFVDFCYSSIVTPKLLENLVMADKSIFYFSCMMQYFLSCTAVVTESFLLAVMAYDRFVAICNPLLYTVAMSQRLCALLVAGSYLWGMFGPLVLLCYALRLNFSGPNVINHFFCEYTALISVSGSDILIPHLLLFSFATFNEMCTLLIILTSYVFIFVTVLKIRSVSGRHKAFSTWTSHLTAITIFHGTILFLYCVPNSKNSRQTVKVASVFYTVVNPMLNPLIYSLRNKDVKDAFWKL
Put shortly: as §1

As for `CCCCCCCC=O`, the “odorant receptor agonist call” value in [1], in experiment [2], in experiment [3], in [4], in experiment [5] and in experiment [6] was “inactive” each time. Further, the “odorant receptor agonist call” value in experiment [7], in experiment [8], in experiment [9], in experiment [10], in experiment [11] and in experiment [12] was “inactive” in each case.
On to `O=C1CCCCCCCCCCCC(=O)OCCO1`, for which, in experiment [1], the “odorant receptor agonist call” value was “active”. Also, the “odorant receptor agonist call” value in experiment [2], in experiment [3], in experiment [4], in experiment [5], in experiment [6] and in experiment [7] was “inactive” in each case. Moreover, the “odorant receptor agonist call” value in [8], in [9], in experiment [10], in [11] and in experiment [12] was “inactive” in each case.
For `COc1ccccc1O`, the “odorant receptor agonist call” value in experiment [1], in [2], in experiment [3], in experiment [4], in experiment [5] and in experiment [6] was “inactive” in each case. The “odorant receptor agonist call” value in experiment [7], in experiment [8], in experiment [9], in [10], in experiment [11] and in experiment [12] was “inactive” in each case.
For the compound `CC1COCc2cc3c(cc21)C(C)(C)C(C)C3(C)C` (configuration not stated), the “odorant receptor agonist call” value in experiment [1], in [2], in [4], in experiment [6], in [9] and in experiment [10] was “active” each time. In addition, the “odorant receptor agonist call” value in experiment [3], in [5], in [7], in experiment [8], in experiment [11] and in experiment [12] was “inactive” in each case.
Take `COc1cc(C)ccc1O`: the “odorant receptor agonist call” value in [1], in experiment [2], in experiment [3], in experiment [4], in experiment [5] and in experiment [6] was “inactive” throughout. Further, the “odorant receptor agonist call” value in [7], in experiment [8], in experiment [9], in experiment [10], in [11] and in [12] was “inactive” throughout.
Consider `CC(=O)OCC=C(C)CCC=C(C)C`, for which the “odorant receptor agonist call” value in [1], in experiment [2], in experiment [3], in experiment [4], in [5] and in experiment [6] was “inactive” throughout. Further, the “odorant receptor agonist call” value in experiment [7], in experiment [8], in experiment [9], in experiment [10], in experiment [11] and in [12] was “inactive” each time.
